{"source": "paper PMC7364817", "molecular_target": "T1, FLAG-tagged SMCR8 (Smith-Magenis Syndrome Chromosome Region, Candidate 8) (UniProt Q8TEV9)", "T1 sequence": "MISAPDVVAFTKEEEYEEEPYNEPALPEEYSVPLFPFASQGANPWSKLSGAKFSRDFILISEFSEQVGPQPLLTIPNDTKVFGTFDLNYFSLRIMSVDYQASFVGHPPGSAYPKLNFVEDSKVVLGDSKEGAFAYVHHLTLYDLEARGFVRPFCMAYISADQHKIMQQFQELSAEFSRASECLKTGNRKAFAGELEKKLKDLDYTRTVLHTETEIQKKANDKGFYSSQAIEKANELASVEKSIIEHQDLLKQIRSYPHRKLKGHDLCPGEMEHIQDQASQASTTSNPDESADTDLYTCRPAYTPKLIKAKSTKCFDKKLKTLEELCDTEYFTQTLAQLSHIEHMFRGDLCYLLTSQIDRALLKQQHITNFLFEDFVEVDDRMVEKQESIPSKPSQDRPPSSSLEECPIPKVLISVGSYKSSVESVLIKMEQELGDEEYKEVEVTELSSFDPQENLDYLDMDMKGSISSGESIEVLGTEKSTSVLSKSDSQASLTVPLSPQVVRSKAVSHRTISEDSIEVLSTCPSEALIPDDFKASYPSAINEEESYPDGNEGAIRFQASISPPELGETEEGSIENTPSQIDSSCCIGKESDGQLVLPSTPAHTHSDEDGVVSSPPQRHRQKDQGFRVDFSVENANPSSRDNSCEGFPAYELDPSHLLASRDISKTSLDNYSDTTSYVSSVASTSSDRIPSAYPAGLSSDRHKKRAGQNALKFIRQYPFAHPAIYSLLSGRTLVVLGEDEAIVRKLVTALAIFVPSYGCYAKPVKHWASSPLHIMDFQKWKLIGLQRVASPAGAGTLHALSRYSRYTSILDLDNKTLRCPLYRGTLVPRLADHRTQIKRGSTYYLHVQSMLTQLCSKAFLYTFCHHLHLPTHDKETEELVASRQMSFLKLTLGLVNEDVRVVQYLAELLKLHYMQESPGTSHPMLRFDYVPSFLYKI", "test": "affinity purification with mass spectrometry; FL-SMCR8, C9orf72-FL or empty vector transfected in HEK 293T; α-FLAG agarose IP from whole cell lysates with or without RNase; LC-MS/MS; hits with three or more spectra and not detected in vector only control", "note": "These are yes or no findings as the source states them, for the method shown. In cells and extracts the contact can be indirect. A yes stands for co-enrichment or nearness to the bait. Other partners may have been found. Where a sequence is shown, tags or fusion partners need not be part of it."}
{"binder": "LAS1L (protein, UniProt Q9Y4W2 1-734) MSWESGAGPGLGSQGMDLVWSAWYGKCVKGKGSLPLSAHGIVVAWLSRAEWDQVTVYLFCDDHKLQRYALNRITVWRSRSGNELPLAVASTADLIRCKLLDVTGGLGTDELRLLYGMALVRFVNLISERKTKFAKVPLKCLAQEVNIPDWIVDLRHELTHKKMPHINDCRRGCYFVLDWLQKTYWCRQLENSLRETWELEEFREGIEEEDQEEDKNIVVDDITEQKPEPQDDGKSTESDVKADGDSKGSEEVDSHCKKALSHKELYERARELLVSYEEEQFTVLEKFRYLPKAIKAWNNPSPRVECVLAELKGVTCENREAVLDAFLDDGFLVPTFEQLAALQIEYEDGQTEVQRGEGTDPKSHKNVDLNDVLVPKPFSQFWQPLLRGLHSQNFTQALLERMLSELPALGISGIRPTYILRWTVELIVANTKTGRNARRFSAGQWEARRGWRLFNCSASLDWPRMVESCLGSPCWASPQLLRIIFKAMGQGLPDEEQEKLLRICSIYTQSGENSLVQEGSEASPIGKSPYTLDSLYWSVKPASSSFGSEAKAQQQEEQGSVNDVKEEEKEEKEVLPDQVEEEEENDDQEEEEEDEDDEDDEEEDRMEVGPFSTGQESPTAENARLLAQKRGALQGSAWQVSSEDVRWDTFPLGRMPGQTEDPAELMLENYDTMYLLDQPVLEQRLEPSTCKTDTLGLSCGVGSGNCSNSSSSNFEGLLWSQGQLHGLKTGLQLF", "values": [{"measurement": "binding", "value": "binds"}]}
{"binder": "SLC25A22 (protein, UniProt Q9H936 1-323) MADKQISLPAKLINGGIAGLIGVTCVFPIDLAKTRLQNQQNGQRVYTSMSDCLIKTVRSEGYFGMYRGAAVNLTLVTPEKAIKLAANDFFRHQLSKDGQKLTLLKEMLAGCGAGTCQVIVTTPMEMLKIQLQDAGRIAAQRKILAAQGQLSAQGGAQPSVEAPAAPRPTATQLTRDLLRSRGIAGLYKGLGATLLRDVPFSVVYFPLFANLNQLGRPASEEKSPFYVSFLAGCVAGSAAAVAVNPCDVVKTRLQSLQRGVNEDTYSGILDCARKILRHEGPSAFLKGAYCRALVIAPLFGIAQVVYFLGIAESLLGLLQDPQA", "values": [{"measurement": "binding", "value": "binds"}]}
{"binder": "SPTLC1 (protein, UniProt O15269 1-473) MATATEQWVLVEMVQALYEAPAYHLILEGILILWIIRLLFSKTYKLQERSDLTVKEKEELIEEWQPEPLVPPVPKDHPALNYNIVSGPPSHKTVVNGKECINFASFNFLGLLDNPRVKAAALASLKKYGVGTCGPRGFYGTFDVHLDLEDRLAKFMKTEEAIIYSYGFATIASAIPAYSKRGDIVFVDRAACFAIQKGLQASRSDIKLFKHNDMADLERLLKEQEIEDQKNPRKARVTRRFIVVEGLYMNTGTICPLPELVKLKYKYKARIFLEESLSFGVLGEHGRGVTEHYGINIDDIDLISANMENALASIGGFCCGRSFVIDHQRLSGQGYCFSASLPPLLAAAAIEALNIMEENPGIFAVLKEKCGQIHKALQGISGLKVVGESLSPAFHLQLEESTGSREQDVRLLQEIVDQCMNRSIALTQARYLEKEEKCLPPPSIRVVVTVEQTEEELERAASTIKEVAQAVLL", "values": [{"measurement": "binding", "value": "binds"}]}
{"binder": "TECR (protein, UniProt Q9NZ01 1-308) MKHYEVEILDAKTREKLCFLDKVEPHATIAEIKNLFTKTHPQWYPARQSLRLDPKGKSLKDEDVLQKLPVGTTATLYFRDLGAQISWVTVFLTEYAGPLFIYLLFYFRVPFIYGHKYDFTSSRHTVVHLACICHSFHYIKRLLETLFVHRFSHGTMPLRNIFKNCTYYWGFAAWMAYYINHPLYTPPTYGAQQVKLALAIFVICQLGNFSIHMALRDLRPAGSKTRKIPYPTKNPFTWLFLLVSCPNYTYEVGSWIGFAIMTQCLPVALFSLVGFTQMTIWAKGKHRSYLKEFRDYPPLRMPIIPFLL", "values": [{"measurement": "binding", "value": "binds"}]}
{"binder": "MAGE family member D1 (protein, UniProt Q9Y5V3 1-778) MAQKMDCGAGLLGFQAEASVEDSALLMQTLMEAIQISEAPPTNQATAAASPQSSQPPTANEMADIQVSAAAARPKSAFKVQNATTKGPNGVYDFSQAHNAKDVPNTQPKAAFKSQNATPKGPNAAYDFSQAATTGELAANKSEMAFKAQNATTKVGPNATYNFSQSLNANDLANSRPKTPFKAWNDTTKAPTADTQTQNVNQAKMATSQADIETDPGISEPDGATAQTSADGSQAQNLESRTIIRGKRTRKINNLNVEENSSGDQRRAPLAAGTWRSAPVPVTTQNPPGAPPNVLWQTPLAWQNPSGWQNQTARQTPPARQSPPARQTPPAWQNPVAWQNPVIWPNPVIWQNPVIWPNPIVWPGPVVWPNPLAWQNPPGWQTPPGWQTPPGWQGPPDWQGPPDWPLPPDWPLPPDWPLPTDWPLPPDWIPADWPIPPDWQNLRPSPNLRPSPNSRASQNPGAAQPRDVALLQERANKLVKYLMLKDYTKVPIKRSEMLRDIIREYTDVYPEIIERACFVLEKKFGIQLKEIDKEEHLYILISTPESLAGILGTTKDTPKLGLLLVILGVIFMNGNRASEAVLWEALRKMGLRPGVRHPLLGDLRKLLTYEFVKQKYLDYRRVPNSNPPEYEFLWGLRSYHETSKMKVLRFIAEVQKRDPRDWTAQFMEAADEALDALDAAAAEAEARAEARTRMGIGDEAVSGPWSWDDIEFELLTWDEEGDFGDPWSRIPFTFWARYHQNARSRFPQTFAGPIIGPGGTASANFAANFGAIGFFWVE", "values": [{"measurement": "binding", "value": "binds"}]}
{"binder": "DnaJ heat shock protein family member C7 (protein, UniProt Q99615 1-494) MAAAAECDVVMAATEPELLDDQEAKREAETFKEQGNAYYAKKDYNEAYNYYTKAIDMCPKNASYYGNRAATLMMLGRFREALGDAQQSVRLDDSFVRGHLREGKCHLSLGNAMAACRSFQRALELDHKNAQAQQEFKNANAVMEYEKIAETDFEKRDFRKVVFCMDRALEFAPACHRFKILKAECLAMLGRYPEAQSVASDILRMDSTNADALYVRGLCLYYEDCIEKAVQFFVQALRMAPDHEKACIACRNAKALKAKKEDGNKAFKEGNYKLAYELYTEALGIDPNNIKTNAKLYCNRGTVNSKLRKLDDAIEDCTNAVKLDDTYIKAYLRRAQCYMDTEQYEEAVRDYEKVYQTEKTKEHKQLLKNAQLELKKSKRKDYYKILGVDKNASEDEIKKAYRKRALMHHPDRHSGASAEVQKEEEKKFKEVGEAFTILSDPKKKTRYDSGQDLDEEGMNMGDFDPNNIFKAFFGGPGGFSFEASGPGNFFFQFG", "values": [{"measurement": "binding", "value": "binds"}]}
{"binder": "solute carrier family 25 member 3 (protein, UniProt Q00325 50-362) AVEEQYSCDYGSGRFFILCGLGGIISCGTTHTALVPLDLVKCRMQVDPQKYKGIFNGFSVTLKEDGVRGLAKGWAPTFLGYSMQGLCKFGFYEVFKVLYSNMLGEENTYLWRTSLYLAASASAEFFADIALAPMEAAKVRIQTQPGYANTLRDAAPKMYKEEGLKAFYKGVAPLWMRQIPYTMMKFACFERTVEALYKFVVPKPRSECSKPEQLVVTFVAGYIAGVFCAIVSHPADSVVSVLNKEKGSSASLVLKRLGFKGVWKGLFARIIMIGTLTALQWFIYDSVKVYFRLPRPPPPEMPESLKKKLGLTQ", "values": [{"measurement": "binding", "value": "binds"}]}
{"binder": "solute carrier family 25 member 11 (protein, UniProt Q02978 1-314) MAATASAGAGGIDGKPRTSPKSVKFLFGGLAGMGATVFVQPLDLVKNRMQLSGEGAKTREYKTSFHALTSILKAEGLRGIYTGLSAGLLRQATYTTTRLGIYTVLFERLTGADGTPPGFLLKAVIGMTAGATGAFVGTPAEVALIRMTADGRLPADQRRGYKNVFNALIRITREEGVLTLWRGCIPTMARAVVVNAAQLASYSQSKQFLLDSGYFSDNILCHFCASMISGLVTTAASMPVDIAKTRIQNMRMIDGKPEYKNGLDVLFKVVRYEGFFSLWKGFTPYYARLGPHTVLTFIFLEQMNKAYKRLFLSG", "values": [{"measurement": "binding", "value": "binds"}]}
{"binder": "aspartyl-tRNA synthetase (protein, UniProt P14868 1-501) MPSASASRKSQEKPREIMDAAEDYAKERYGISSMIQSQEKPDRVLVRVRDLTIQKADEVVWVRARVHTSRAKGKQCFLVLRQQQFNVQALVAVGDHASKQMVKFAANINKESIVDVEGVVRKVNQKIGSCTQQDVELHVQKIYVISLAEPRLPLQLDDAVRPEAEGEEEGRATVNQDTRLDNRVIDLRTSTSQAVFRLQSGICHLFRETLINKGFVEIQTPKIISAASEGGANVFTVSYFKNNAYLAQSPQLYKQMCICADFEKVFSIGPVFRAEDSNTHRHLTEFVGLDIEMAFNYHYHEVMEEIADTMVQIFKGLQERFQTEIQTVNKQFPCEPFKFLEPTLRLEYCEALAMLREAGVEMGDEDDLSTPNEKLLGHLVKEKYDTDFYILDKYPLAVRPFYTMPDPRNPKQSNSYDMFMRGEEILSGAQRIHDPQLLTERALHHGIDLEKIKAYIDSFRFGAPPHAGGGIGLERVTMLFLGLHNVRQTSMFPRDPKRLTP", "values": [{"measurement": "binding", "value": "binds"}]}
